The text below walks through data of PMC12065913.

Sequences of proteins named here, by UniProt entry; tags and fusion partners are left off.
UniProt P0A850: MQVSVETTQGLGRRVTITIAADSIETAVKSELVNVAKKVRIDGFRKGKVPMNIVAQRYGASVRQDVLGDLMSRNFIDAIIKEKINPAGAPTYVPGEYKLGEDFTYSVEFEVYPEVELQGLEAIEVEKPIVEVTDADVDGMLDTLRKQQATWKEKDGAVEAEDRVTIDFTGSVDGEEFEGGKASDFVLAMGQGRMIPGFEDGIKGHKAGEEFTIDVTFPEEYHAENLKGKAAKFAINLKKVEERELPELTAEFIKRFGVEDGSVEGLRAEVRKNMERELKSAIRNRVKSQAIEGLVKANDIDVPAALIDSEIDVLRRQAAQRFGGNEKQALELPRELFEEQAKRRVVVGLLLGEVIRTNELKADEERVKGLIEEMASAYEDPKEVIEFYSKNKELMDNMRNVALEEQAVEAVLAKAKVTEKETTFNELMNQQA
UniProt P0A6Y8: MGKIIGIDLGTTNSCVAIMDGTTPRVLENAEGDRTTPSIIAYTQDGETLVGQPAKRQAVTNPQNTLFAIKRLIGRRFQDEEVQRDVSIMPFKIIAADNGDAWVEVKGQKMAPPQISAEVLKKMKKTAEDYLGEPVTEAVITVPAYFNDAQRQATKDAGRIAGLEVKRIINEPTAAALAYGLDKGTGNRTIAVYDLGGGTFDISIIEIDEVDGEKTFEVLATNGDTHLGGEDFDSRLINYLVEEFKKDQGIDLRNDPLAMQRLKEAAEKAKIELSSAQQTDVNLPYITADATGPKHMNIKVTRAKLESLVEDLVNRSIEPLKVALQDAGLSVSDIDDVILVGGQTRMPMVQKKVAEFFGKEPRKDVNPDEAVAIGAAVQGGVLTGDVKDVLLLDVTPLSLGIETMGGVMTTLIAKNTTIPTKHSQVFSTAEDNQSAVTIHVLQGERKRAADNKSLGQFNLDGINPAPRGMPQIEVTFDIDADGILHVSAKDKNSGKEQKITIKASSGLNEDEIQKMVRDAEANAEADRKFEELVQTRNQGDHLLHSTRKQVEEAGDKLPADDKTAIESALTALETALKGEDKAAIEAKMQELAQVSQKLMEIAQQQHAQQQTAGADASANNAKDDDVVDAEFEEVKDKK
UniProt P0A6F5: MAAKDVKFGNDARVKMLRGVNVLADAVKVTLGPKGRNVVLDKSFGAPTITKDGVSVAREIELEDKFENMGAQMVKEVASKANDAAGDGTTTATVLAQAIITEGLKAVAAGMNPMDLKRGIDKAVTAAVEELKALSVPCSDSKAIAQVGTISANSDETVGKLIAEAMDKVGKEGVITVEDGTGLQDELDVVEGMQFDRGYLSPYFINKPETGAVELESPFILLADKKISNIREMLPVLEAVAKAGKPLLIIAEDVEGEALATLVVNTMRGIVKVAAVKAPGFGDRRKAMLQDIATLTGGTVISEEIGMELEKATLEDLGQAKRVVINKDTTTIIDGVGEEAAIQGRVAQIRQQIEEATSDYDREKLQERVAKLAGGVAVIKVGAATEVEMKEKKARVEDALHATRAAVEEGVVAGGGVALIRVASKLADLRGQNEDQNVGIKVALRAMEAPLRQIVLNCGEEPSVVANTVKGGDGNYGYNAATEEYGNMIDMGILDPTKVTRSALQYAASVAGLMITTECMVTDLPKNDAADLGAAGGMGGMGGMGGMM

No constants are given. Whether binding was seen depends on the method and setting. Some results given as binding are weak or reduced against the parent protein; the word gives no strength.

One assay has as its target Trigger Factor (E. coli) (UniProt P0A850). Kind of assay: selective ribosome profiling (affinity purification of chaperone-bound ribosome-nascent chain complexes, sequencing of the mRNA footprints); TF-TEV-Avi affinity purified from lysate of Δtig::tig-TEV-Avi cells, no chemical cross-linking; selected translatome normalised by the total ….
In assay [1] the target is DnaK (E. coli (endogenous in E. coli cells)) (UniProt P0A6Y8). Kind of assay: selective ribosome profiling (SeRP); immunoprecipitation of DnaK (anti-DnaK antibody on Dynabeads) with ribosome-nascent chain complexes; ATP depleted with hexokinase; MNase digest, sucrose cushion; ribosome footprints sequenced.
Assay [2] deals with Trigger Factor (tig-TEV-Avi) (E. coli) (UniProt P0A850). Kind of assay: selective ribosome profiling (SeRP); affinity purification of TF-TEV-Avi with ribosome-nascent chain complexes from E. coli lysate, no chemical cross-linking; ribosome footprints sequenced, enrichment over the total translatome.
Assay [3] deals with GroEL (E. coli (endogenous in MC4100)) (UniProt P0A6F5). Description: selective ribosome profiling (immunoprecipitation of chaperone-bound ribosome-nascent chain complexes, sequencing of the mRNA footprints); GroEL immunoprecipitated with anti-GroEL antibody from ATP-depleted lysate cross-linked with 60 mM EDC; WT, Δtig and ΔdnaK strain backgrounds; selected translatome normalised by the total translatome.

B1: nascent OppA (protein, UniProt P23843 27-543)
chain: ADVPAGVTLAEKQTLVRNNGSEVQSLDPHKIEGVPESNISRDLFEGLLVSDLDGHPAPGVAESWDNKDAKVWTFHLRKDAKWSDGTPVTAQDFVYSWQRSVDPNTASPYASYLQYGHIAGIDEILEGKKPITDLGVKAIDDHTLEVTLSEPVPYFYKLLVHPSTSPVPKAAIEKFGEKWTQPGNIVTNGAYTLKDWVVNERIVLERSPTYWNNAKTVINQVTYLPIASEVTDVNRYRSGEIDMTNNSMPIELFQKLKKEIPDEVHVDPYLCTYYYEINNQKPPFNDVRVRTALKLGMDRDIIVNKVKAQGNMPAYGYTPPYTDGAKLTQPEWFGWSQEKRNEEAKKLLAEAGYTADKPLTINLLYNTSDLHKKLAIAASSLWKKNIGVNVKLVNQEWKTFLDTRHQGTFDVARAGWCADYNEPTSFLNTMLSNSSMNTAHYKSPAFDSIMAETLKVTDEAQRTALYTKAEQQLDKDSAIVPVYYYVNARLVKPWVGGYTGKDPLDNTYTRNMYIVKH
B1: in the assay with Trigger Factor (E. coli), the binding entry is given as “binds”.

B2: nascent FtsK (protein, UniProt P46889 1-1329)
chain: MSQEYIEDKEVTLTKLSSGRRLLEALLILIVLFAVWLMAALLSFNPSDPSWSQTAWHEPIHNLGGMPGAWLADTLFFIFGVMAYTIPVIIVGGCWFAWRHQSSDEYIDYFAVSLRIIGVLALILTSCGLAAINADDIWYFASGGVIGSLLSTTLQPLLHSSGGTIALLCVWAAGLTLFTGWSWVTIAEKLGGWILNILTFASNRTRRDDTWVDEDEYEDDEEYEDENHGKQHESRRARILRGALARRKRLAEKFINPMGRQTDAALFSGKRMDDDEEITYTARGVAADPDDVLFSGNRATQPEYDEYDPLLNGAPITEPVAVAAAATTATQSWAAPVEPVTQTPPVASVDVPPAQPTVAWQPVPGPQTGEPVIAPAPEGYPQQSQYAQPAVQYNEPLQQPVQPQQPYYAPAAEQPAQQPYYAPAPEQPVAGNAWQAEEQQSTFAPQSTYQTEQTYQQPAAQEPLYQQPQPVEQQPVVEPEPVVEETKPARPPLYYFEEVEEKRAREREQLAAWYQPIPEPVKEPEPIKSSLKAPSVAAVPPVEAAAAVSPLASGVKKATLATGAAATVAAPVFSLANSGGPRPQVKEGIGPQLPRPKRIRVPTRRELASYGIKLPSQRAAEEKAREAQRNQYDSGDQYNDDEIDAMQQDELARQFAQTQQQRYGEQYQHDVPVNAEDADAAAEAELARQFAQTQQQRYSGEQPAGANPFSLDDFEFSPMKALLDDGPHEPLFTPIVEPVQQPQQPVAPQQQYQQPQQPVPPQPQYQQPQQPVAPQPQYQQPQQPVAPQQQYQQPQQPVAPQQQYQQPQQPVAPQPQDTLLHPLLMRNGDSRPLHKPTTPLPSLDLLTPPPSEVEPVDTFALEQMARLVEARLADFRIKADVVNYSPGPVITRFELNLAPGVKAARISNLSRDLARSLSTVAVRVVEVIPGKPYVGLELPNKKRQTVYLREVLDNAKFRDNPSPLTVVLGKDIAGEPVVADLAKMPHLLVAGTTGSGKSVGVNAMILSMLYKAQPEDVRFIMIDPKMLELSVYEGIPHLLTEVVTDMKDAANALRWCVNEMERRYKLMSALGVRNLAGYNEKIAEADRMMRPIPDPYWKPGDSMDAQHPVLKKEPYIVVLVDEFADLMMTVGKKVEELIARLAQKARAAGIHLVLATQRPSVDVITGLIKANIPTRIAFTVSSKIDSRTILDQAGAESLLGMGDMLYSGPNSTLPVRVHGAFVRDQEVHAVVQDWKARGRPQYVDGITSDSESEGGAGGFDGAEELDPLFDQAVQFVTEKRKASISGVQRQFRIGYNRAARIIEQMEAQGIVSEQGHNGNREVLAPPPFD
On to B2, for which the binding entry in assay [1] is given as “binds”.

B3: nascent DeoC (protein, UniProt P0A6L0 1-259)
chain: MTDLKASSLRALKLMDLTTLNDDDTDEKVIALCHQAKTPVGNTAAICIYPRFIPIARKTLKEQGTPEIRIATVTNFPHGNDDIDIALAETRAAIAYGADEVDVVFPYRALMAGNEQVGFDLVKACKEACAAANVLLKVIIETGELKDEALIRKASEISIKAGADFIKTSTGKVAVNATPESARIMMEVIRDMGVEKTVGFKPAGGVRTAEDAQKYLAIADELFGADWADARHYRFGASSLLASLLKALGHGDGKSASSY
As to B3, the binding entry in assay [2] and in assay [1] was “binds” each time.

B4: nascent BarA (protein, UniProt P0AEC5 1-918)
chain: MTNYSLRARMMILILAPTVLIGLLLSIFFVVHRYNDLQRQLEDAGASIIEPLAVSTEYGMSLQNRESIGQLISVLHRRHSDIVRAISVYDENNRLFVTSNFHLDPSSMQLGSNVPFPRQLTVTRDGDIMILRTPIISESYSPDESPSSDAKNSQNMLGYIALELDLKSVRLQQYKEIFISSVMMLFCIGIALIFGWRLMRDVTGPIRNMVNTVDRIRRGQLDSRVEGFMLGELDMLKNGINSMAMSLAAYHEEMQHNIDQATSDLRETLEQMEIQNVELDLAKKRAQEAARIKSEFLANMSHELRTPLNGVIGFTRLTLKTELTPTQRDHLNTIERSANNLLAIINDVLDFSKLEAGKLILESIPFPLRSTLDEVVTLLAHSSHDKGLELTLNIKSDVPDNVIGDPLRLQQIITNLVGNAIKFTENGNIDILVEKRALSNTKVQIEVQIRDTGIGIPERDQSRLFQAFRQADASISRRHGGTGLGLVITQKLVNEMGGDISFHSQPNRGSTFWFHINLDLNPNIIIEGPSTQCLAGKRLAYVEPNSAAAQCTLDILSETPLEVVYSPTFSALPPAHYDMMLLGIAVTFREPLTMQHERLAKAVSMTDFLMLALPCHAQVNAEKLKQDGIGACLLKPLTPTRLLPALTEFCHHKQNTLLPVTDESKLAMTVMAVDDNPANLKLIGALLEDMVQHVELCDSGHQAVERAKQMPFDLILMDIQMPDMDGIRACELIHQLPHQQQTPVIAVTAHAMAGQKEKLLGAGMSDYLAKPIEEERLHNLLLRYKPGSGISSRVVTPEVNEIVVNPNATLDWQLALRQAAGKTDLARDMLQMLLDFLPEVRNKVEEQLVGENPEGLVDLIHKLHGSCGYSGVPRMKNLCQLIEQQLRSGTKEEDLEPELLELLDEMDNVAREASKILG
On to B4, for which the binding result in assay [1] and in assay [3] was “binds” each time.

B5: nascent AspC (protein, UniProt P00509 1-396)
chain: MFENITAAPADPILGLADLFRADERPGKINLGIGVYKDETGKTPVLTSVKKAEQYLLENETTKNYLGIDGIPEFGRCTQELLFGKGSALINDKRARTAQTPGGTGALRVAADFLAKNTSVKRVWVSNPSWPNHKSVFNSAGLEVREYAYYDAENHTLDFDALINSLNEAQAGDVVLFHGCCHNPTGIDPTLEQWQTLAQLSVEKGWLPLFDFAYQGFARGLEEDAEGLRAFAAMHKELIVASSYSKNFGLYNERVGACTLVAADSETVDRAFSQMKAAIRANYSNPPAHGASVVATILSNDALRAIWEQELTDMRQRIQRMRQLFVNTLQEKGANRDFSFIIKQNGMFSFSGLTKEQVLRLREEFGVYAVASGRVNVAGMTPDNMAPLCEAIVAVL
As to B5, the binding entry in assay [2] and in assay [1] was “binds” throughout.

B6: nascent LolA (protein, UniProt P61316 22-203)
chain: DAASDLKSRLDKVSSFHASFTQKVTDGSGAAVQEGQGDLWVKRPNLFNWHMTQPDESILVSDGKTLWFYNPFVEQATATWLKDATGNTPFMLIARNQSSDWQQYNIKQNGDDFVLTPKASNGNLKQFTINVGRDGTIHQFSAVEQDDQRSSYQLKSQQNGAVDAAKFTFTPPQGVTVDDQRK
For the molecule B6, the binding result with Trigger Factor (E. coli) was “binds”.
